The source of these data is PubChem BioAssay AID330 (DTP/NCI, 2004).

The subject of this experiment is P388 leukemia ip, CD2F1 mice, survival T/C. The experiment can be described thus: NCI In Vivo Anticancer Drug Screen. Data for tumor model P388 Leukemia (intraperitoneal) in CD2F1 (CDF1) mice. Particulars: T/C endpoint: median survival time, higher T/C = longer survival.
Where [1] appears, read: dose: 240.0 mg/kg/injection, schedule: Q01DX005 (ip), vehicle: saline with Tween-80.
[2] abbreviates: dose: 100.0 mg/kg/injection, schedule: Q01DX005 (ip), vehicle: saline with Tween-80.
Where [3] appears, read: dose: 200.0 mg/kg/injection, schedule: Q01DX005 (ip), vehicle: saline with Tween-80.
Setting [4] is: dose: 240.0 mg/kg/injection, schedule: Q01DX005 (ip), vehicle: saline.
[5] abbreviates: dose: 400.0 mg/kg/injection, schedule: Q01DX009 (ip), vehicle: other.
The mark [6] stands for this setting: dose: 120.0 mg/kg/injection, schedule: Q01DX005 (ip), vehicle: saline with Tween-80.
[7] abbreviates: dose: 100.0 mg/kg/injection, schedule: Q01DX009 (ip), vehicle: saline with Tween-80.
[8] abbreviates: dose: 6.25 mg/kg/injection, schedule: Q01DX009 (ip), vehicle: suspension in saline.
Where [9] appears, read: dose: 50.0 mg/kg/injection, schedule: Q01DX005 (ip), vehicle: Klucel (hydroxypropylcellulose) (HPC).
The mark [10] stands for this setting: dose: 100.0 mg/kg/injection, schedule: Q01DX005 (ip), vehicle: Klucel (hydroxypropylcellulose) (HPC).
Setting [11] is: dose: 200.0 mg/kg/injection, schedule: Q01DX005 (ip), vehicle: Klucel (hydroxypropylcellulose) (HPC).

The list is a part of this screen's results and no random one: it gathers tests that were run many times, whatever their T/C, doses with no T/C, and many T/C values between a quarter and a half above the control. Other doses and runs of a compound stand elsewhere. T/C gives the treated animals as a percentage of the vehicle group. Some doses have a count of surviving animals in place of a T/C: the source files T/C as zero there, which appears to mark a toxic dose or a test without result, not a measured value. Some survivor counts are full or nearly so, which does not show that the dose was tolerated: survival well below the control is almost never listed, so the zero probably covers shortened survival too. Survivors were counted at the toxicity check, usually on the fifth day, unless a day is given; later deaths do not show. Schedules are NCI's codes, read here as Q, the interval in days (D) or hours (H), X, the number of doses. Some entries were tested several times; their values stand side by side, smallest first. Where survival is the endpoint, the PubChem record calls one and a half times the control and up active, and a quarter to a half above the control has no call in these data; cut-offs in other NCI protocols can differ.

Take `CSc1nc(NC2OC(COC(C)=O)C(OC(C)=O)C(OC(C)=O)C2OC(C)=O)c(N=C(C)C(C)=O)c(=O)n1C` (stereo not given): the survivor count under setting [1] is reported as 6 of 6.

As for `O=C(NCCCCCCCNC(=O)C12CC3CC(CC(C3)C1)C2)C12CC3CC(CC(C3)C1)C2`, the survivor count under setting [2] is on record as 6 of 6 and the survivor count under setting [3] was 6 of 6.

On to `CC(=O)OC1C=CC2OC2(COC(=O)c2ccccc2)C1OC(C)=O` (stereo not given), for which the survivor count (dose: 1.25 mg/kg/injection, schedule: Q01DX009 (ip), vehicle: Klucel (hydroxypropylcellulose) (HPC)) is recorded as 6 of 6.

On to `COc1ccc2c(c1[N+](=O)[O-])CC[C@@H]1[C@@H]2CC[C@]2(C)C(=O)CC[C@@H]12`, for which the survivor count (dose: 400.0 mg/kg/injection, schedule: Q01DX005 (ip), vehicle: saline with Tween-80) was 6 of 6.

Turning to `CC1=NCCN=C(C)C1[N+](=O)[O-]`, the survivor count (dose: 200.0 mg/kg/injection, schedule: Q01DX009 (ip), vehicle: saline) is on record as 6 of 6.

Regarding `COc1ccccc1C(=O)CCN(C)C`, the survivor count is given as 1 of 6 (dose: 120.0 mg/kg/injection, schedule: Q01DX005 (ip), vehicle: saline) and 0 of 6 under setting [4].

Take `CNC(=S)NNc1cccc([N+](=O)[O-])c1`: the survivor count under setting [5] was 2 of 6.

With `CCCCOc1ccc(-c2c(COC(=O)NC)c(COC(=O)NC)c(C)n2C)cc1`, the T/C is 137 % of control (dose: 7.5 mg/kg/injection, schedule: Q01DX009 (ip), vehicle: distilled water + Tween-80); 143 and 146 % of control (dose: 15.0 mg/kg/injection, schedule: Q01DX009 (ip), vehicle: distilled water + Tween-80); 143 and 144 % of control (dose: 30.0 mg/kg/injection, schedule: Q01DX009 (ip), vehicle: distilled water + Tween-80). Further, the survivor count (dose: 120.0 mg/kg/injection, schedule: Q01DX009 (ip), vehicle: distilled water + Tween-80) is 3 of 6 and 4 of 6.

For the compound `CCN(CC)CCOc1ccccc1C(C)=O`, the survivor count is 2 of 6 under setting [2] and 0 of 6 under setting [3].

In the case of `O=c1c2ccccc2nc(-c2ccccc2)n1O`, where the note is “dose: 25.0 mg/kg/injection, schedule: Q01DX009 (ip), vehicle: Klucel (hydroxypropylcellulose) (HPC)”, the T/C is 138 % of control. Moreover, the survivor count (dose: 50.0 mg/kg/injection, schedule: Q01DX009 (ip), vehicle: Klucel (hydroxypropylcellulose) (HPC)) is recorded as 2 of 6.

As to `C/C(=N\N=C(N)N)c1ccc2c(c1)Cc1cc(/C(C)=N/N=C(N)N)ccc1-2`, the survivor count (dose: 200.0 mg/kg/injection, schedule: Q04DX002 (ip), vehicle: saline with Tween-80) is recorded as 4 of 6.

Regarding `CCCCCCCCOc1ccc(/C=C/C(C)=N/NC(N)=NC)cc1OC`, the survivor count is reported as 1 of 6 (dose: 60.0 mg/kg/injection, schedule: Q01DX005 (ip), vehicle: saline with Tween-80); 1 of 6 under setting [6]; 0 of 6 under setting [1].

As to `CN(C)c1ncnc2c1cnn2C`, the survivor count is on record as 6 of 6 under setting [7] and 1 of 6 (dose: 200.0 mg/kg/injection, schedule: Q01DX009 (ip), vehicle: saline with Tween-80).

Regarding `Nc1nc(-c2ccccc2)nc(-c2ccccc2)n1`, under setting [8], the T/C was 125 % of control and the survivor count is on record as 6 of 6. For the same compound, the survivor count (dose: 25.0 mg/kg/injection, schedule: Q01DX009 (ip), vehicle: saline) is recorded as 6 of 6.

Take `O=C1c2ccc(Cl)cc2OCCC1CN1CCCCC1` (stereo not given): the survivor count (dose: 400.0 mg/kg/injection, schedule: Q04DX003 (ip), vehicle: saline) is listed as 0 of 6.

On to `COC(=O)/C=C1\C=CC(=O)OC1O` (stereo not given), for which the survivor count by setting is: under setting [9], 1 of 6; under setting [10], 0 of 6; under setting [11], 0 of 6.

For `CCCCCCCCCCCCCCCC[N+](C)(C)CC#N`, the survivor count (dose: 50.0 mg/kg/injection, schedule: Q01DX009 (ip), vehicle: saline) is on record as 1 of 6.

For `COc1cc(NN=C(C#N)C#N)c(OC)cc1Cl`, the survivor count reads like this: under setting [9], 2 of 5; under setting [10], 0 of 5; under setting [11], 0 of 5.

Regarding `CC1CCCCN1C` (stereo not given), the survivor count under setting [3] is 0 of 6.

On to `Clc1nnn(-c2ccccc2)n1`, for which, under “dose: 250.0 mg/kg/injection, schedule: Q04DX002 (ip), vehicle: saline with Tween-80”, the survivor count is 5 of 6.

For the compound `O=NN(CCCl)C(=O)N[C@H]1CCCC[C@@H]1Cl`, the T/C (dose: 50.0 mg/kg/injection, schedule: Q04DX003 (ip), vehicle: saline with Tween-80) is 131 % of control. For the same compound, the survivor count is, setting by setting: (dose: 75.0 mg/kg/injection, schedule: Q04DX003 (ip), vehicle: saline with Tween-80) 6 of 6; under setting [7], 5 of 6; (dose: 200.0 mg/kg/injection, schedule: Q04DX003 (ip), vehicle: saline with Tween-80) 1 of 6.

`COC1N(Cc2ccccc2)C=C2C(=O)NC(=O)C3NC(c4ccccc4)C1(C)C23C` (stereo not given): under setting [10], the survivor count is 6 of 6.

For the compound `CC(C)N[C@@H]1CCC[C@@H]2c3ccccc3[C@@]21O`, under setting [4], the survivor count is on record as 0 of 6.

With `CCOP(=O)(O)C1CCCC(C)[N-]1.CCOP(=O)(O)C1CCCC(C)[N-]1.[Ni+2]` (stereo not given), the survivor count is 1 of 6 (dose: 100.0 mg/kg/injection, schedule: Q04DX003 (ip), vehicle: Klucel (hydroxypropylcellulose) (HPC)); 0 of 6 (dose: 200.0 mg/kg/injection, schedule: Q04DX003 (ip), vehicle: Klucel (hydroxypropylcellulose) (HPC)); 0 of 6 (dose: 400.0 mg/kg/injection, schedule: Q04DX003 (ip), vehicle: Klucel (hydroxypropylcellulose) (HPC)).

`COc1ccc2c(N=[N+]=[N-])cc(C)nc2c1`: the survivor count was 1 of 6 and 2 of 6 under setting [6]; 0 of 6 under setting [1].

As to `CSc1ccnc2ccccc12`, the survivor count is listed as 2 of 6 (dose: 100.0 mg/kg/injection, schedule: Q01DX009 (ip), vehicle: other) and 0 of 6 (dose: 200.0 mg/kg/injection, schedule: Q01DX009 (ip), vehicle: other).

`Cc1ccc(S(=O)(=O)N/N=C/C=N/NS(=O)(=O)c2ccc(C)cc2)cc1`: the survivor count under setting [5] is given as 6 of 6.
